Literature values in patent publication US7632813B2, “Bone densifying agent characterized by use of cathepsin K inhibitor with PTH” (Ono Pharmaceutical Co., Ltd., priority 2004, dated 2009).

Settings: N Engl J Med 349, 1207-1215 and 1216-1226 (2003); cited from earlier work

## NCCCC(O)(P(=O)(O)O)P(=O)(O)O [ALN, Alendronate sodium hydrate]
  effect on increasing bone mineral density in combination with PTH, clinical: does not show an effect in combination with PTH
